In PubChem BioAssay AID248 (DTP/NCI, 2004):
The list is a part of this screen's results and no random one: it gathers some chemical classes. Other doses and runs of a compound may be missing. T/C is the treated group as % of the vehicle group. Some entries give survivors of the animals treated and no T/C: the source holds a T/C of zero for them, seemingly a mark for toxic or unscored doses. Some doses without a T/C left all or most animals alive at the check, yet need not have been tolerated: survival well below the control is almost never listed, so the zero probably covers shortened survival too. Survivors were counted at the toxicity check, usually on the fifth day, unless a day is given; later deaths do not show. Schedule codes are those of the source, taken here to give the interval after Q, in days (D) or hours (H), and the number of doses after X. For survival time, the PubChem record calls one and a half times the control and up active, and a quarter to a half above the control has no call in these data; cut-offs in other NCI protocols can differ. Some schedules carry Z or #; the key to these is not given. Some T/C values are marked as having no survivor count here; that says nothing about deaths at the dose. Some entries were tested several times; the results are listed from low to high. Some T/C values are followed by the survivors on the day toxicity was checked, most often the fifth; where neither a count nor a note follows, no animal had died by that day.

System: L1210 leukemia ip in BDF1 mice, survival T/C
Assay: NCI In Vivo Anticancer Drug Screen. Data for tumor model L1210 Leukemia (intraperitoneal) in B6D2F1 (BDF1) mice
Conditions: T/C endpoint: mean survival time, higher T/C = longer survival

O=S(=O)(O)C(O)C(O)C(O)C(O)CNCCCl (stereo not given)
T/C (dose: 50.0 mg/kg/injection, schedule: Q01DX009 (ip), vehicle: saline): 95 % of control | T/C (dose: 100.0 mg/kg/injection, schedule: Q01DX009 (ip), vehicle: saline): 97 % of control | survivor count (dose: 200.0 mg/kg/injection, schedule: Q01DX009 (ip), vehicle: saline): 6 of 6 | survivor count (dose: 400.0 mg/kg/injection, schedule: Q01DX009 (ip), vehicle: saline): 1 of 6

F[As-](F)(F)(F)(F)F.c1ccc([As+](c2ccccc2)(c2ccccc2)c2ccccc2)cc1
T/C (dose: 100.0 mg/kg/injection, schedule: Q04DX002 (ip), vehicle: Klucel (hydroxypropylcellulose) (HPC)): 118 % of control | T/C (dose: 200.0 mg/kg/injection, schedule: Q04DX002 (ip), vehicle: Klucel (hydroxypropylcellulose) (HPC)): 115 % of control | T/C (dose: 400.0 mg/kg/injection, schedule: Q04DX002 (ip), vehicle: Klucel (hydroxypropylcellulose) (HPC)): 115 % of control

O=Cc1c([N+](=O)[O-])cc([N+](=O)[O-])cc1[N+](=O)[O-]
T/C (dose: 4.0 mg/kg/injection, schedule: Q01DX015 (ip), vehicle: carboxymethylcellulose (CMC)): 96 % of control [survivor count not shown] | T/C (dose: 8.0 mg/kg/injection, schedule: Q01DX015 (ip), vehicle: carboxymethylcellulose (CMC)): 98 % of control [survivor count not shown] | T/C (dose: 16.0 mg/kg/injection, schedule: Q01DX015 (ip), vehicle: carboxymethylcellulose (CMC)): 94 % of control [survivor count not shown] | T/C (dose: 32.0 mg/kg/injection, schedule: Q01DX015 (ip), vehicle: carboxymethylcellulose (CMC)): 100 [survivor count not shown] and 104 % of control [survivor count not shown]

NCCSP(=O)(O)O
T/C (dose: 100.0 mg/kg/injection, schedule: Q01DX001 (ip), vehicle: saline): 102 % of control | T/C (dose: 200.0 mg/kg/injection, schedule: Q01DX001 (ip), vehicle: saline): 98 % of control | T/C (dose: 400.0 mg/kg/injection, schedule: Q01DX001 (ip), vehicle: saline): 98 % of control

F[P-](F)(F)(F)(F)F.c1ccc([P+]2(c3ccccc3)CCc3ccccc3C2)cc1
survivor count (dose: 25.0 mg/kg/injection, schedule: Q04DX003 (ip), vehicle: saline with Tween-80): 0 of 3 | survivor count (dose: 50.0 mg/kg/injection, schedule: Q04DX003 (ip), vehicle: saline with Tween-80): 0 of 3 | survivor count (dose: 100.0 mg/kg/injection, schedule: Q04DX003 (ip), vehicle: saline with Tween-80): 0 of 3

CCN(CC)CCOC(=O)C(O)(c1ccccc1C)c1ccccc1C
T/C (dose: 75.0 mg/kg/injection, schedule: Q01DX001 (ip), vehicle: other): 100 % of control

O=P(NCCCO)(OCCCl)N(CCCl)CCCl (stereo not given)
T/C (dose: 37.5 mg/kg/injection, schedule: Q01DX Z (ip), vehicle: methylcellulose (MC)): 110 % of control | T/C (dose: 75.0 mg/kg/injection, schedule: Q01DX Z (ip), vehicle: methylcellulose (MC)): 92 % of control | T/C (dose: 100.0 mg/kg/injection, schedule: Q01DX009 (ip), vehicle: saline sonified): 105 % of control | T/C (dose: 100.0 mg/kg/injection, schedule: Q04DX003 (ip), vehicle: saline): 107 % of control | T/C (dose: 150.0 mg/kg/injection, schedule: Q01DX Z (ip), vehicle: methylcellulose (MC)): 94 % of control | T/C (dose: 200.0 mg/kg/injection, schedule: Q01DX009 (ip), vehicle: saline sonified): 101 % of control | T/C (dose: 200.0 mg/kg/injection, schedule: Q04DX003 (ip), vehicle: saline): 95 % of control | T/C (dose: 300.0 mg/kg/injection, schedule: Q01DX Z (ip), vehicle: methylcellulose (MC)): 98 % of control [5 of 6 alive] | T/C (dose: 400.0 mg/kg/injection, schedule: Q01DX009 (ip), vehicle: saline sonified): 110 % of control | T/C (dose: 400.0 mg/kg/injection, schedule: Q04DX003 (ip), vehicle: saline): 102 % of control [5 of 6 alive] | T/C (dose: 750.0 mg/kg/injection, schedule: Q01DX Z (oral), vehicle: carboxymethylcellulose (CMC)): 90 % of control [5 of 6 alive] | T/C (dose: 1000.0 mg/kg/injection, schedule: Q01DX Z (oral), vehicle: carboxymethylcellulose (CMC)): 98 % of control
